# Results taken from PMC6709923.
# Amino acid sequences for entries named in this document (tags omitted). Residues count along the entry.
# UniProt P19878, residues 1-155: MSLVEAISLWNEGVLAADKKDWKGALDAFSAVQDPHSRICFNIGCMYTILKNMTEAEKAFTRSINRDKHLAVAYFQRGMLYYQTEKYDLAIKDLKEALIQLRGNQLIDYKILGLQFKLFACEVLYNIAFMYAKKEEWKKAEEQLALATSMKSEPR
# UniProt O70145: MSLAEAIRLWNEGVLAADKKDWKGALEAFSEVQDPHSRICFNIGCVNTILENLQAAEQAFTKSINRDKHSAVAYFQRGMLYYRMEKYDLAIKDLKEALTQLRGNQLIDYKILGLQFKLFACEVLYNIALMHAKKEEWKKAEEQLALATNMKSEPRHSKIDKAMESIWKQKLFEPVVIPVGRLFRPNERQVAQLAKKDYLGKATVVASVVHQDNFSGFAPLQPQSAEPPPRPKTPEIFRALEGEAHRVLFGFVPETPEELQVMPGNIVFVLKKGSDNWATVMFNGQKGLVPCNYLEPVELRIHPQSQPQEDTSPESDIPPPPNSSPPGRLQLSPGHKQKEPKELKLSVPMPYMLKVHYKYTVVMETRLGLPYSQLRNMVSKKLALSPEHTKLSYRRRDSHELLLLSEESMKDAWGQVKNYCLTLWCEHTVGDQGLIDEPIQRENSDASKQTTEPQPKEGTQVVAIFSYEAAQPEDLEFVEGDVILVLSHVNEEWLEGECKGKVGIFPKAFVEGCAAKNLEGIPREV
# Read-outs that look alike come from different tables or passages of the source. These are yes or no findings as the source states them, for the method shown. Binding seen in cells or lysates may run through a third protein. Some entries that bind do so weakly or less than the wild type.
# T1: Fas-associated factor 1 (endogenous, mouse macrophages) (mouse (endogenous in Raw264.7 and BMDMs)) (UniProt P54731)
# T1 sequence: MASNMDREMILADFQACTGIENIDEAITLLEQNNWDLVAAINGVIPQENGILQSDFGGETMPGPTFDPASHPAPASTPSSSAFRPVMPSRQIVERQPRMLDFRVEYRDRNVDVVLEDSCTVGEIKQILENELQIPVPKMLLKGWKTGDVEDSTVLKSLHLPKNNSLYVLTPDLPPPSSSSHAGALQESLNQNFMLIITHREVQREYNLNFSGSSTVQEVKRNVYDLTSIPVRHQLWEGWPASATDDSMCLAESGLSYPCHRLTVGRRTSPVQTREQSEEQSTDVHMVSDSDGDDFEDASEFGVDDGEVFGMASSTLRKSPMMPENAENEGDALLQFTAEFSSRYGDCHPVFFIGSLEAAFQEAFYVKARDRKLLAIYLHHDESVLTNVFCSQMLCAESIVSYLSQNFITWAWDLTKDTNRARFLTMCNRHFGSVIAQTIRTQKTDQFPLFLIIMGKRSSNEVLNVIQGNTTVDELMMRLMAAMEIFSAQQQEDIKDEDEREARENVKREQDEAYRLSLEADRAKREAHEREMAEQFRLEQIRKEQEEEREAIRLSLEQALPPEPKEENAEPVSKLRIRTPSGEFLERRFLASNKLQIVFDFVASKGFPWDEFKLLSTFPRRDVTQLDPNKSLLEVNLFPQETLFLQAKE
# B1: p47phox (endogenous, Raw264.7) (protein, UniProt Q09014 1-390)
# chain: MGDTFIRHIALLGFEKRFIPSQHYVYMFLVKWQDLSEKVVYRKFTEIYEFHKMLKEMFPIEAGEIHTENRVIPHLPAPRWFDGQRAAESRQGTLTEYFNGLMGLPVKISRCPHLLDFFKVRPDDLKLPTDSQAKKPETYLVPKDGKNNVADITGPIILQTYRAIADYEKSSGTEMTVATGDVVDVVEKSESGWWFCQMKTKRGWVPASYLEPLDSPDEAEDPDPNYAGEPYVTIKAYAAVEEDEMSLSEGEAIEVIHKLLDGWWVVRKGDITGYFPSMYLQKAGEEITQAQRQIRGRGAPPRRSTIRNAQSIHQRSRKRLSQDTYRRNSVRFLQQRRRPGRPGPLSTDGTKDNPSTPRVKPQPAVPPRPSSDLILHRCTESTKRKLTSAV
# B2: p40phox (endogenous, Raw264.7) (protein, UniProt P97369 1-339)
# chain: MALAQQLRSESDFEQLPDDVAVSANIADIEEKRGFTSHFVFVIEVKTKGGSKYLIYRRYRQFYALQSKLEERFGPESKNSPFTCSLPTLPAKVYMGAKQEIAETRIPALNAYMKNLLSLPVCVLMDPDVRIFFYQSAYDAEQVPQALRRLRPRTRKIKGVSPQGAIMDRMEAPRAEALFDFTGNSKLELSFKAGDVIFLLSKINKDWLEGTSQGATGIFPGSFVKILKDFPEDEDTTNWLRCYFYEDTGKTIKDIAVEEDLSSTPLFKDLLALMRREFQREDIALSYQDAEGDLVRLLSDEDVGLMVKQARGLPSQKRLFPWKLHVTQKDNYSVYNTVP
# Legend:
# [1] = target: GST-tagged p67phox 4X tetratricopeptide repeat (TPR) domain (UniProt P19878); assay: pull-down; HEK293T cells co-transfected with GST-tagged domain constructs and the V5-tagged partner; RIPA lysate, pre-cleared with sepharose 6B, glutathione sepharose 4B overnight at 4°C, washed with 1% nonidet P-40; immunoblot with anti-V5
# [2] = target: T1, Fas-associated factor 1 (endogenous, mouse macrophages) (mouse (endogenous in Raw264.7 and BMDMs)); assay: co-IP; endogenous proteins; mock- or L. monocytogenes-infected Raw264.7 cells harvested at various times (also after control or FAF1 siRNA); RIPA lysate, anti-FAF1 antibody, protein A/G agarose; immunoblot
# [3] = target: V5-tagged FAF1 wild-type (stable in Raw264.7) (UniProt Q9UNN5); assay: co-IP; Raw264.7 cells stably holding empty vector, V5-tagged FAF1 wild-type or FAF1 Δ330–489, without stimulation; IP with anti-V5 antibody; immunoblot for endogenous p67phox and p47phox
# [4] = target: T1, Fas-associated factor 1 (endogenous, mouse macrophages) (mouse (endogenous in Raw264.7 and BMDMs)); assay: co-IP; endogenous proteins; BMDMs after control or FAF1 siRNA, infected with L. monocytogenes for the indicated times; anti-FAF1 antibody; immunoblot with anti-p67phox
# [5] = target: V5-tagged FAF1 Δ330–489 (stable in Raw264.7) (UniProt Q9UNN5); assay: co-IP; Raw264.7 cells stably holding empty vector, V5-tagged FAF1 wild-type or FAF1 Δ330–489, without stimulation; IP with anti-V5 antibody; immunoblot for endogenous p67phox and p47phox
# [6] = target: V5-tagged FAF1 wild-type (stable in Raw264.7) (UniProt Q9UNN5); assay: as above; remark: listed apart in the source
molecule,measurement,setting,value
V5-tagged FAF1 (HEK293T) (from UniProt Q9UNN5 1-650),binding,[1],binds
"p67phox (endogenous, mouse macrophages) (from UniProt O70145 1-525)",binding,[2],binds
same,binding,[3],binds
same,binding,[4],binds
B1,binding,[5],binds weakly
same,binding,[6],binds
same,binding,[2],binds
B2,binding,[2],binds
